Measurements reported in PubChem BioAssay AID504791 (Drosophila RNAi Screening Center, 2011)
The deposit covers about 23,000 reagents; shown is an unselected part of those that have a named target and a result. Over the whole deposit, 199 (0.86%) are marked active. 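Plate-scaled ratios behind the calls are not deposited; printed light signals are raw; many rows marked increased or decreased are still called inactive.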 The numbers tell different reagents against one gene apart.

- Aim: 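Genes whose knock-down strengthens or weakens small-RNA reporter silencing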 (primary screen)
- System: Drosophila S2-derived reporter cells
- Knock-down reagent: long dsRNA against Drosophila genes, about 150-250 ng dsRNA per well (siRNA assay); about 80-120 ng (miRNA assay)
- Time to read-out: about 5 days (siRNA assay); about 4 days (miRNA assay)
- Conditions: copper sulfate induction of reporters: 25 µM (siRNA assay); 200 mM stated (miRNA assay), 1-2 days before reading
- Measurement: 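Per-well ratio of Renilla over firefly light, expressed relative to that plate's average ratio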
- Reading the numbers: siRNA reporter hit score: higher = 3 marks a strong hit with raised ratio; -3 a strong hit with lowered ratio
- Rule for the call: 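First-pass picks had plate-scaled ratios over 1.5 for the siRNA assay, over 1.6 for the miRNA assay, or under 0.6; two distinct dsRNAs had to score alike on retest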

| target gene | reagent no. | siRNA reporter hit score | stable siRNA reporter change | miRNA reporter change | stable assay Renilla, run 1 (luminescence) | stable assay firefly, run 1 (luminescence) | outcome |
| --- | --- | --- | --- | --- | --- | --- | --- |
| etaTry | 1 | – | – | – | 6343 | 3.83e5 | inactive |
| CG12093 | 1 | – | – | – | 10295 | 4.19e5 | inactive |
| Mp20 | 1 | – | – | – | 5770 | 2.94e5 | inactive |
| Tim17a1 | 1 | – | – | – | 6268 | 3.76e5 | inactive |
| Capr | 1 | – | – | – | 7356 | 3.62e5 | inactive |
| CG10347 | 1 | – | – | – | 5819 | 3.73e5 | inactive |
| CG3663 | 1 | – | – | – | 22189 | 1.40e6 | inactive |
| Cpr73D | 1 | – | – | – | 8107 | 3.20e5 | inactive |
| CG30373 | 1 | – | – | – | 5563 | 4.34e5 | inactive |
| ND-B17.2 | 1 | – | – | – | 6731 | 4.00e5 | inactive |
| t | 1 | – | – | – | 5355 | 3.56e5 | inactive |
| enok | 1 | – | – | – | 13799 | 1.69e6 | inactive |
| Boot | 1 | – | – | – | 6464 | 3.32e5 | inactive |
| Nep5 | 1 | – | – | – | 9291 | 5.37e5 | inactive |
| dpa | 1 | – | – | – | 6527 | 3.49e5 | inactive |
| CG31819 | 1 | – | – | – | 6327 | 3.48e5 | inactive |
| CG15578 | 1 | – | – | – | 6623 | 4.20e5 | inactive |
| CG14245 | 1 | – | – | – | 6583 | 6.28e5 | inactive |
| CG31633 | 1 | – | – | – | 7094 | 3.92e5 | inactive |
| CG17780 | 1 | – | – | – | 7023 | 3.00e5 | inactive |
| CG10063 | 1 | – | – | – | 6600 | 4.21e5 | inactive |
| CG12516 | 1 | – | – | – | 5736 | 3.39e5 | inactive |
| CG14877 | 1 | – | – | – | 7496 | 3.94e5 | inactive |
| CG13039 | 1 | – | – | – | 8204 | 5.51e5 | inactive |
| cpb | 1 | – | – | – | 17443 | 8.98e5 | inactive |
| CG4116 | 1 | – | – | – | 6810 | 3.89e5 | inactive |
| upd1 | 1 | – | – | – | 2775 | 2.55e5 | inactive |
| CG18744 | 1 | – | – | – | 6983 | 3.98e5 | inactive |
| BuGZ | 1 | – | – | – | 1.91e5 | 1.58e6 | inactive |
| BuGZ | 2 | – | – | – | 6596 | 4.87e5 | inactive |
| CG32591 | 1 | – | – | – | 4491 | 3.39e5 | inactive |
| Jhbp11 | 1 | – | – | – | 6172 | 4.74e5 | inactive |
| Synj | 1 | – | – | – | 9307 | 1.07e6 | inactive |
| dhd | 1 | – | – | – | 7293 | 5.19e5 | inactive |
| SP | 1 | – | – | – | 5151 | 3.05e5 | inactive |
| CG10301 | 1 | – | – | – | 6426 | 2.78e5 | inactive |
| CG17786 | 1 | – | – | – | 6718 | 3.35e5 | inactive |
| ab | 1 | – | reporter ratio raised past the hit cutoff | – | 6307 | 1.74e5 | inactive |
| ab | 2 | – | – | – | 2828 | 3.31e5 | inactive |
| Oseg2 | 1 | – | – | – | 6151 | 3.70e5 | inactive |
| Gen | 1 | – | – | – | 7708 | 3.78e5 | inactive |
| RhoGDI | 1 | – | – | – | 7819 | 4.00e5 | inactive |
| CG3368 | 1 | – | – | – | 8049 | 4.87e5 | inactive |
| mrva | 1 | – | – | – | 4263 | 4.06e5 | inactive |
| mrva | 2 | – | – | – | 9454 | 7.25e5 | inactive |
| CG6683 | 1 | – | – | – | 7577 | 3.77e5 | inactive |
| tomboy40 | 1 | – | – | – | 98368 | 1.03e6 | inactive |
| Ag5r2 | 1 | – | – | – | 4792 | 3.70e5 | inactive |
| CG18135 | 1 | – | – | – | 9060 | 4.15e5 | inactive |
| CG12984 | 1 | – | – | – | 6507 | 3.31e5 | inactive |
| CG32196 | 1 | – | reporter ratio raised past the hit cutoff | – | 3108 | 79019 | inactive |
| CheA46a | 1 | – | – | – | 4531 | 4.00e5 | inactive |
| Gbp2 | 1 | – | – | – | 10402 | 4.66e5 | inactive |
| dgt6 | 1 | – | – | – | 7691 | 4.68e5 | inactive |
| Bx42 | 1 | – | – | – | 7867 | 4.79e5 | inactive |
| Bx42 | 2 | – | – | reporter ratio lowered past the hit cutoff | – | – | active |
| IntS8 | 1 | -3 | – | – | 12695 | 5.05e5 | inactive |
